Results on one compound are retold here after patent US20240139149A1, “THERAPEUTIC USES OF UROLITHIN DERIVATIVES” (Vandria SA, priority 2022, published 2024).

This data set deals with splenic murine T cells. As to the kind of experiment: Murine T cells stimulated with αCD3/αCD28 in presence of UA. The data set is classed as cell-based. The conditions noted are these: T cells exposed 48 hours to UA vs DMSO. How it is done: Splenic murine T cells were isolated from mice aged 6-20 weeks by negative selection with EasySep mouse T cell isolation kit (Stem cell) according to the manufacturer's instructions. To monitor T cell proliferation, purified T cells were loaded with CellTrace Violet (C34557 ThermoFisher Scientific). T cell activation was initiated using αCD3/CD28 activation beads (11456D; ThermoFisher Scientific) at a ratio of 25 μl dynabeads per 0.5×106 T-cells. Cells were activated with 25-50 μM Urolithin A (Tocris) or DMSO in T cell activation Medium (RPMI (ThermoFisher Scientific) 10% FBS (South America origin), 10 mM Hepes (Sigma), 1×Non-Essential Amino Acid, 1 mM Sodium Pyruvate, 50 µM β-Mercaptoethanol, 100 U/mL penicillin, 100 μg/mL streptomycin and 2 mM Glutamax (ThermoFisher Scientific) for the indicated durations. In selected experiments, cells were stimulated in the presence of inhibitors, namely TCFli (ICG-001; SelleckChem; […]) and PGC-lai (SR-18292, Sigma-Aldrich; […]). For subsequent analysis, activating beads were magnetically removed prior antibody staining. For human T cells, peripheral blood mononuclear cells were purified with a Ficoll-Paque (GE healthcare) gradient. T cells were enriched with EasySep Human T Cell Isolation Kit (StemCell) and activated with dynabead Human T-Activator CD3/CD28 for T Cell Expansion and Activation Kit (11131D; ThermoFisher Scientific), similar to murine T cell stimulation. When the subsequent activation and expansion of CAR T cells was studied, plates were coated with 1 μg/mL anti-human CD3 (αCD3; clone OKT3) and thawed PBMC were cultivated with […] anti-human CD28 (αCD28; 15E8, both Miltenyi Biotec) containing media for three days. (NutriT media (4Cell® Nutri-T media (Sartorius) containing 0.5% penicillin/streptomycin) supplemented with IL-7 (25 U/mL) and IL-15 […] (all Miltenyi Biotec)).
Tumors were minced and digested with Tumor & Tissue Dissociation Reagent (BD Horizon) for 30 min. The remaining organ pieces were filtered through a 70 µm cell strainer. Cells were then washed with PBS 1% BSA and 2 mM EDTA. […]

Turning to `O=c1oc2cc(O)ccc2c2ccc(O)cc12` [UA, Urolithin A], the downregulated genes is 413, the significantly upregulated genes is 765 and the “total number of differentially expressed genes (RNA sequencing)” value stood at 1178.
